Measurements from patent publication US20050054833A1.
Results are given in words; binding and its absence hold for the method and conditions named. Some binding calls cover weakened binding; strength is not graded here.

Legend:
human CD23 (human) = biological target: T1, human CD23 (human) (UniProt P06734); assay: competition assay, FIG. 2
T1 sequence (looked up): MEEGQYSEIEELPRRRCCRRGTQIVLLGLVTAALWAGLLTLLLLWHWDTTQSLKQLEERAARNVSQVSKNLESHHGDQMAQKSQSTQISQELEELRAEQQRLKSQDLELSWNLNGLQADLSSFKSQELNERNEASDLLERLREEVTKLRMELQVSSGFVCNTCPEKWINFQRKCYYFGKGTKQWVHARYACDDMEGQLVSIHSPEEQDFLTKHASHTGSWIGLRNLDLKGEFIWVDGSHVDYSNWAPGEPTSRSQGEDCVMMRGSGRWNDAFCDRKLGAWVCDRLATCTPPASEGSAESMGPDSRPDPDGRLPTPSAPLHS

[1] = biological target: T2, soluble CD23 purified from the supernatant of human RPMI 8866 cells (human) (UniProt P06734); assay: ELISA on soluble CD23 captured by BG-6
T2 sequence (looked up): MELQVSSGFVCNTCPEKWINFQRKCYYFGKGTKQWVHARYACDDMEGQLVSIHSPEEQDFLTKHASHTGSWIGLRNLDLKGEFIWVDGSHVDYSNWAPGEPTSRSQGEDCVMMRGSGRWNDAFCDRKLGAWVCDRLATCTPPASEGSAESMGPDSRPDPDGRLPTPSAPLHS

[2] = biological target: T2, soluble CD23 purified from the supernatant of human RPMI 8866 cells (human); assay: sandwich ELISA, sCD23 captured by BG-6, hybridoma supernatant

binding (human CD23 (human)): binds
binding [1]: binds
binding [2]: binds
B1: primate anti-human CD23 monoclonal antibody 6G5 (antibody, V domains shown)
VH: QLQLQESGPGVVKPSETLSLTCAVSGGSVSSSNWWTWIRQPPGKGLEWIGRISGSGGATNYNPSLKSRVIISQDTSKNQFSLNLNSVTAADTAVYYCARDWAQIAGTTLGFWGQGVLVTVSS
VL: QSAPTQPPSVSGSPGQSVTISCTGTSDDVGGYNYVSWYQHHPGKAPKLMIYDVAKRASGVSDRFSGSKSGNTASLTISGLQAEDEADYYCCSYTTSSTLLFGRGTRLTVLG
